Literature values as cited in US8835171B2, “Materials and methods related to sodium/potassium adenosine triphosphase and cholesterol” (The University of Toledo, priority 2010, dated 2014).
For at least one compound, name, drawing or mass did not settle the structure.

Details: cited from earlier work

## CC(CCC[C@@H](C)[C@@H]1CC[C@H]2[C@@H]3CC=C4C[C@@H](O)CC[C@]4(C)[C@H]3CC[C@@]21C)N(C)c1ccc([N+](=O)[O-])c2nonc12 (stereo partly shown) [NBD-cholesterol, 25-[N-[(7-nitro-2-1,3-benzoxadiazol-4-yl)methyl]amino]-27-norcholesterol]
  critical micelle concentration: ~650 nM
